Test results from patent US12558383B2, “American cockroach extract, preparation thereof, preparation methods therefor and applications thereof” (SICHUAN GOOD DOCTOR PANXI PHARMACEUTICAL CO., LTD, priority 2019, dated 2026).
For at least one compound, name, drawing or mass did not settle the structure.

Test system: cotton ball granuloma in mice
Test: Cotton ball granuloma in mice
Type: in vivo
Conditions: 7 consecutive days
Description: Fifty mice weighing 18-22 g were taken, 10/group, half male and half female. The mice were fixed, and disinfected on the chest with iodine. Iodine was removed with 75% alcohol cotton ball. A small hole was cut in the chest, 20 mg high-pressure sterilized cotton ball was implanted into the armpit subcutaneously from the incision with ophthalmic forceps, and then the skin was sutured. […] The above groups were administrated for 7 consecutive days. Before the end of the test on the 8th day, the body weight was measured, then the mice were killed by taking off the cervical vertebra. The implanted cotton ball was taken out together with the surrounding connective tissue, removed of the adipose tissue, wet weighted, placed into the oven at 60° C. for 24 hours, and weighed on a precision balance. The weight of granuloma was obtained by subtracting the original weight of cotton ball from the weighed weight, and the comparison and statistical analysis between groups were carried out.

C[C@@H]1C[C@H]2[C@@H]3CCC4=CC(=O)C=C[C@]4(C)[C@@]3(F)[C@@H](O)C[C@]2(C)[C@@]1(O)C(=O)CO [dexamethasone]
formation / weight of cotton ball granuloma compared with the model group (in words): significantly inhibited
